Measured values taken from PMC7862700.
Only a part is listed here, and it is no random draw. At the low end of the ranking the order means little.

These sequences were tested against T1, ELK1 (UniProt P19419) (assay: DAPPL (digital affinity profiling via proximity ligation, sequencing)). Settings: 10 mM Tris-HCl pH 7.5, 50 mM NaCl, 1 mM DTT, 4% glycerol, room temperature, 30 min; GST-TFs on glutathione beads, 16-mer random dsDNA library, 0.1% …; high values mean tight binding; double strand, one strand shown; scale: fold enrichment (6-mer frequency, TF over GST control).
T1 sequence: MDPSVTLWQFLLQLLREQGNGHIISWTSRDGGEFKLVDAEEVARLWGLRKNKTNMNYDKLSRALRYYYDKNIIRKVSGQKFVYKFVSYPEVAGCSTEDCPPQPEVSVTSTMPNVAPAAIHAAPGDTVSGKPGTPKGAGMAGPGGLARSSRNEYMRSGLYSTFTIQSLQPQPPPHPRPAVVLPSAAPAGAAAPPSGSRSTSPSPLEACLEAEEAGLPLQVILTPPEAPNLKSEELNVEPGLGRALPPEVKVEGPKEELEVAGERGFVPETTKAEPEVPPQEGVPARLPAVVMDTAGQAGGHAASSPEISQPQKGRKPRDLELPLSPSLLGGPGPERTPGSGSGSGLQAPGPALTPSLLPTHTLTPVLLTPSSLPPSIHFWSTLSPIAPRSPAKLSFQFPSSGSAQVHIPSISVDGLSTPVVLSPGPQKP

| Sequence | binding signal |
| --- | --- |
| CGTCAT | 0.979 |
| TAAGGC | 0.96 |
| ACAAGA | 0.923 |
| GCGCGT | 0.834 |
| TTGAGA | 0.823 |
| CGCCCC | 1.17 |
| AGAGCT | 0.957 |
| CTAGGG | 0.91 |
| CTGTAG | 0.997 |
| AGATCT | 0.999 |
| TGGATT | 0.974 |
| GTTGTC | 0.844 |
| CGAAGG | 0.914 |
| CGCCCA | 1.13 |
| TATGGG | 1.06 |
| ATGGGA | 0.854 |
| TGCAGA | 0.994 |
| GTGCCG | 0.874 |
| CATCCA | 1.06 |
| GGCTAA | 0.965 |

Laid out differently: results already given
Sequence | binding signal
TATGGG | 1.06
ATGGGA | 0.854

Additional results.

| Sequence | binding signal |
| --- | --- |
| AGCAGA | 0.878 |
| GTAGTT | 0.922 |
| GGCACC | 0.842 |
| GATGGA | 0.889 |
| CTGGCG | 0.818 |
| TAGTTG | 0.905 |
| GCGACA | 0.949 |
| ATTGTG | 0.925 |
| TCGAAG | 0.888 |
| CACGGC | 0.949 |
| AGGGAA | 0.912 |
| CACACC | 1.07 |
| CTGACC | 1.41 |
| AGGCAC | 0.826 |
| GCGTTG | 0.926 |
| TGTGGC | 0.931 |
| ATAGTC | 0.899 |
| AGTTTG | 0.995 |
| CGCTGT | 0.87 |
